Test results reported in PubChem BioAssay AID248 (DTP/NCI, 2004).
The list is a part of this screen's results and no random one: it is rich in T/C values a quarter to a half above the control, in often repeated tests (any T/C) and in doses without a T/C. Other doses and runs of a compound stand elsewhere. T/C gives the treated animals as a percentage of the vehicle group. Some doses have a count of surviving animals in place of a T/C: the source holds a T/C of zero for them, seemingly a mark for toxic or unscored doses. Some doses without a T/C left all or most animals alive at the check, yet need not have been tolerated: survival well below the control is almost never listed, so the zero probably covers shortened survival too. Survivors were counted at the toxicity check, usually on the fifth day, unless a day is given; later deaths do not show. Schedules are NCI's codes, taken here to give the interval after Q, in days (D) or hours (H), and the number of doses after X. Some schedules carry Z or #; the key to these is not given. Additions like (4×) count equal records among those shown. Some entries were tested several times; their values stand side by side, smallest first. Where survival is the endpoint, this PubChem deposit counts one and a half times the control or more as active, and values a quarter to a half above the control carry no call in these data; other NCI protocols may use other cut-offs. Some T/C values are followed by the survivors on the day toxicity was checked, most often the fifth; without a count, all were alive then.

System: L1210 leukemia ip in BDF1 mice, survival T/C
Experiment: NCI In Vivo Anticancer Drug Screen. Data for tumor model L1210 Leukemia (intraperitoneal) in B6D2F1 (BDF1) mice
Details: T/C endpoint: mean survival time, higher T/C = longer survival
[1] = dose: 200.0 mg/kg/injection, schedule: Q01DX001 (ip), vehicle: saline
[2] = dose: 400.0 mg/kg/injection, schedule: Q01DX001 (ip), vehicle: saline
[3] = dose: 200.0 mg/kg/injection, schedule: Q01DX001 (ip), vehicle: saline with Tween-80
[4] = dose: 150.0 mg/kg/injection, schedule: Q01DX001 (ip), vehicle: carboxymethylcellulose (CMC)
[5] = dose: 300.0 mg/kg/injection, schedule: Q01DX001 (ip), vehicle: carboxymethylcellulose (CMC)
[6] = dose: 200.0 mg/kg/injection, schedule: Q01DX009 (ip), vehicle: Klucel (hydroxypropylcellulose) (HPC)
[7] = dose: 400.0 mg/kg/injection, schedule: Q01DX009 (ip), vehicle: Klucel (hydroxypropylcellulose) (HPC)
[8] = dose: 500.0 mg/kg/injection, schedule: Q01DX Z (ip), vehicle: methylcellulose (MC)
[9] = dose: 100.0 mg/kg/injection, schedule: Q01DX009 (ip), vehicle: Klucel (hydroxypropylcellulose) (HPC)
[10] = dose: 400.0 mg/kg/injection, schedule: Q04DX003 (ip), vehicle: Klucel (hydroxypropylcellulose) (HPC)

CCCCCCCCSC(=O)N(C(C)C)C(C)C
T/C (dose: 200.0 mg/kg/injection, schedule: Q04DX002 (ip), vehicle: saline): 141 % of control [2 of 3 alive]

Nc1nc(Cl)nc2c1ncn2Cc1ccccc1
survivor count (dose: 150.0 mg/kg/injection, schedule: Q01DX001 (ip), vehicle: other): 1 of 6
survivor count (dose: 300.0 mg/kg/injection, schedule: Q01DX001 (ip), vehicle: other): 0 of 6

Cc1ccc2c(c1)SP(=S)(c1ccccc1)N2 (stereo not given)
survivor count (dose: 35.0 mg/kg/injection, schedule: Q01DX Z (ip), vehicle: saline): 0 of 6
survivor count (dose: 50.0 mg/kg/injection, schedule: Q01DX001 (ip), vehicle: saline): 0 of 6
survivor count (dose: 50.0 mg/kg/injection, schedule: Q01DX Z (ip), vehicle: saline): 1 of 6
survivor count (dose: 100.0 mg/kg/injection, schedule: Q01DX001 (ip), vehicle: saline): 0 of 6
survivor count [1]: 1 of 6
survivor count [2]: 0 of 6

CSCC1OC(n2cnc3c(N)nc(Cl)nc32)C(O)C1O (stereo not given)
survivor count (dose: 50.0 mg/kg/injection, schedule: Q01DX009 (ip), vehicle: saline with Tween-80): 1 of 6
survivor count (dose: 100.0 mg/kg/injection, schedule: Q01DX009 (ip), vehicle: saline with Tween-80): 0 of 6
survivor count [3]: 2 of 6
survivor count (dose: 400.0 mg/kg/injection, schedule: Q01DX001 (ip), vehicle: saline with Tween-80): 2 of 6

NC(CC(O)c1ccccc1)c1ccccc1 (stereo not given)
survivor count [4]: 0 of 6
survivor count [5]: 0 of 6

N#CCCSc1ccccc1
survivor count (dose: 200.0 mg/kg/injection, schedule: Q01DX009 (ip), vehicle: saline with Tween-80): 1 of 3
survivor count (dose: 400.0 mg/kg/injection, schedule: Q01DX009 (ip), vehicle: saline with Tween-80): 0 of 3
survivor count (dose: 400.0 mg/kg/injection, schedule: Q04DX002 (ip), vehicle: saline with Tween-80): 2 of 3

Nc1csc2cccc[n+]12
survivor count (dose: 50.0 mg/kg/injection, schedule: Q04DX003 (ip), vehicle: saline): 6 of 6
survivor count (dose: 150.0 mg/kg/injection, schedule: Q04DX003 (ip), vehicle: saline): 5 of 6
survivor count [1]: 0 of 6
survivor count (dose: 225.0 mg/kg/injection, schedule: Q04DX003 (ip), vehicle: saline): 0 of 6
survivor count (dose: 335.0 mg/kg/injection, schedule: Q04DX003 (ip), vehicle: saline): 0 of 6
survivor count [2]: 0 of 6

CCC(C)C(C#N)(CCN(C)C)Cc1cccc2ccccc12 (stereo not given)
survivor count [6]: 5 of 6
survivor count [7]: 0 of 6

CC1(C)S[C@@H]2[C@H](NC=O)C(=O)N2[C@H]1C(=O)OCc1ccccc1
survivor count [5]: 6 of 6

CC(=O)N(C)N
survivor count (dose: 200.0 mg/kg/injection, schedule: Q01DX009 (ip), vehicle: saline): 2 of 6
survivor count (dose: 400.0 mg/kg/injection, schedule: Q04DX003 (ip), vehicle: saline): 6 of 6

C=CCOC(=O)OCc1ccccc1
survivor count [8]: 5 of 6

CCCCN(C)/N=N/c1nn[nH]n1
survivor count (dose: 200.0 mg/kg/injection, schedule: Q04DX002 (ip), vehicle: Klucel (hydroxypropylcellulose) (HPC)): 3 of 3

O=[N+]([O-])/C=C\c1ccc2c(c1)OCO2
survivor count [9]: 2 of 6 (2×)
survivor count [6]: 0 of 6
survivor count [7]: 0 of 6
survivor count [10]: 2 of 6

COC(=O)c1cccc2cn3ccc4c5ccccc5nc-4c3cc12
survivor count [3]: 3 of 3

COC(=O)C#CC(=O)OC
survivor count (dose: 100.0 mg/kg/injection, schedule: Q04DX003 (ip), vehicle: Klucel (hydroxypropylcellulose) (HPC)): 0 of 3
survivor count (dose: 200.0 mg/kg/injection, schedule: Q04DX003 (ip), vehicle: Klucel (hydroxypropylcellulose) (HPC)): 0 of 3
survivor count [10]: 0 of 3

CCOC(=O)OC1CC/C(=N\NC(N)=S)C1 (stereo not given)
survivor count (dose: 250.0 mg/kg/injection, schedule: Q01DX Z (ip), vehicle: methylcellulose (MC)): 6 of 6
survivor count [8]: 6 of 6
survivor count (dose: 750.0 mg/kg/injection, schedule: Q01DX Z (ip), vehicle: methylcellulose (MC)): 6 of 6

COc1cc(NC(=O)N(CCCl)N=O)cc(OC)c1OC
T/C (dose: 3.3 mg/kg/injection, schedule: Q01DX009 (ip), vehicle: saline with Tween-80): 126 % of control
T/C (dose: 5.0 mg/kg/injection, schedule: Q01DX009 (ip), vehicle: saline with Tween-80): 135 % of control
T/C (dose: 7.0 mg/kg/injection, schedule: Q01DX009 (ip), vehicle: saline with Tween-80): 141 % of control
T/C (dose: 16.6 mg/kg/injection, schedule: Q01DX001 (ip), vehicle: saline): 145 % of control
survivor count [4]: 3 of 6
survivor count [5]: 0 of 6

COc1cc(C=Nc2cc(Br)c(O)c(Br)c2)ccc1N(CCCl)CCCl
T/C (dose: 9.6 mg/kg/injection, schedule: Q01DX009 (ip), vehicle: carboxymethylcellulose (CMC)): 132 % of control [4 of 6 alive]
T/C (dose: 14.6 mg/kg/injection, schedule: Q01DX001 (ip), vehicle: carboxymethylcellulose (CMC)): 126 % of control
T/C (dose: 22.0 mg/kg/injection, schedule: Q01DX001 (ip), vehicle: carboxymethylcellulose (CMC)): 132 % of control
T/C (dose: 33.0 mg/kg/injection, schedule: Q01DX001 (ip), vehicle: carboxymethylcellulose (CMC)): 135 % of control
survivor count (dose: 33.0 mg/kg/injection, schedule: Q01DX009 (ip), vehicle: carboxymethylcellulose (CMC)): 4 of 6
T/C (dose: 50.0 mg/kg/injection, schedule: Q01DX001 (ip), vehicle: carboxymethylcellulose (CMC)): 142 % of control [5 of 6 alive]
survivor count (dose: 50.0 mg/kg/injection, schedule: Q01DX009 (ip), vehicle: carboxymethylcellulose (CMC)): 0 of 6
survivor count (dose: 75.0 mg/kg/injection, schedule: Q01DX001 (ip), vehicle: carboxymethylcellulose (CMC)): 4 of 6
survivor count (dose: 100.0 mg/kg/injection, schedule: Q01DX001 (ip), vehicle: carboxymethylcellulose (CMC)): 0 of 4 and 1 of 4
survivor count (dose: 200.0 mg/kg/injection, schedule: Q01DX001 (ip), vehicle: carboxymethylcellulose (CMC)): 0 of 4
survivor count (dose: 400.0 mg/kg/injection, schedule: Q01DX001 (ip), vehicle: carboxymethylcellulose (CMC)): 0 of 4

O=C(O)CCCC[P+](c1ccccc1)(c1ccccc1)c1ccccc1
survivor count (dose: 400.0 mg/kg/injection, schedule: Q01DX009 (ip), vehicle: saline): 2 of 6

C(=NCC(CCN1CCCCC1)(CCN1CCCCC1)c1cccc2ccccc12)C(CCN1CCCCC1)(CCN1CCCCC1)c1cccc2ccccc12
survivor count [9]: 0 of 6
survivor count [6]: 0 of 6
survivor count [7]: 0 of 6

Cc1cccc(NC#N)n1
survivor count (dose: 200.0 mg/kg/injection, schedule: Q01DX001 (ip), vehicle: Klucel (hydroxypropylcellulose) (HPC)): 0 of 6
survivor count (dose: 400.0 mg/kg/injection, schedule: Q01DX001 (ip), vehicle: Klucel (hydroxypropylcellulose) (HPC)): 0 of 6
